Source: PubChem BioAssay AID256 (DTP/NCI, 2004)
The list shows only some results of the screen, not a fair sample: it is rich in T/C values a quarter to a half above the control, in often repeated tests (any T/C) and in doses without a T/C. Further doses and runs are listed elsewhere. T/C: endpoint of the treated group in % of that of the vehicle group. Some doses have a count of surviving animals in place of a T/C: the source files T/C as zero there, which appears to mark a toxic dose or a test without result, not a measured value. Some doses without a T/C left all or most animals alive at the check, yet need not have been tolerated: survival well below the control is almost never listed, so the zero probably covers shortened survival too. Counts of survivors are from the toxicity check (mostly the fifth day) where no day follows; animals may have died later. Schedules are NCI's codes, taken here to give the interval after Q, in days (D) or hours (H), and the number of doses after X. Where survival is the endpoint, the PubChem record calls one and a half times the control and up active, and a quarter to a half above the control has no call in these data; cut-offs in other NCI protocols can differ. Some doses were run more than once; the values are given in rising order. Some T/C values carry the count of animals alive at the toxicity check (mostly the fifth day); without a count, all were alive then.

System: CD2F1 mice, L1210 leukemia ip, survival T/C
Test: NCI In Vivo Anticancer Drug Screen. Data for tumor model L1210 Leukemia (intraperitoneal) in CD2F1 (CDF1) mice
Conditions: higher T/C = longer survival
Method in brief: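 In this screen, transplantable tumors were grown in mice given either the compound or its vehicle. Results were expressed as the treated measurement relative to the control measurement.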

[1] = T/C endpoint: mean survival time, dose: 200.0 mg/kg/injection, schedule: Q01DX009 (ip), vehicle: saline with Tween-80
[2] = T/C endpoint: mean survival time, dose: 400.0 mg/kg/injection, schedule: Q01DX009 (ip), vehicle: saline with Tween-80
[3] = T/C endpoint: mean survival time, dose: 100.0 mg/kg/injection, schedule: Q04DX003 (ip), vehicle: saline with Tween-80
[4] = T/C endpoint: mean survival time, dose: 200.0 mg/kg/injection, schedule: Q04DX003 (ip), vehicle: saline with Tween-80
[5] = T/C endpoint: mean survival time, dose: 400.0 mg/kg/injection, schedule: Q04DX003 (ip), vehicle: saline with Tween-80
[6] = T/C endpoint: mean survival time, dose: 300.0 mg/kg/injection, schedule: Q01DX001 (ip), vehicle: saline
[7] = T/C endpoint: mean survival time, dose: 75.0 mg/kg/injection, schedule: Q01DX001 (ip), vehicle: saline
[8] = T/C endpoint: mean survival time, dose: 150.0 mg/kg/injection, schedule: Q01DX001 (ip), vehicle: saline
[9] = T/C endpoint: mean survival time, dose: 400.0 mg/kg/injection, schedule: Q01DX009 (ip), vehicle: saline
[10] = T/C endpoint: mean survival time, dose: 100.0 mg/kg/injection, schedule: Q01DX009 (ip), vehicle: Klucel (hydroxypropylcellulose) (HPC)
[11] = T/C endpoint: mean survival time, dose: 100.0 mg/kg/injection, schedule: Q01DX001 (ip), vehicle: saline with Tween-80
[12] = T/C endpoint: mean survival time, dose: 12.5 mg/kg/injection, schedule: Q01DX009 (ip), vehicle: saline with Tween-80
[13] = T/C endpoint: mean survival time, dose: 400.0 mg/kg/injection, schedule: Q01DX001 (ip), vehicle: saline with Tween-80
[14] = T/C endpoint: mean survival time, dose: 25.0 mg/kg/injection, schedule: Q01DX009 (ip), vehicle: saline with Tween-80

Compound: O=C(Nc1ccc(C2=NCCN2)cc1)c1ccc(C(=O)Nc2ccc(C3=NCCN3)cc2)c([N+](=O)[O-])c1
- T/C (T/C endpoint: mean survival time, dose: 5.0 mg/kg/injection, schedule: Q01DX009 (ip), vehicle: saline): 127 % of control
- T/C (T/C endpoint: mean survival time, dose: 20.0 mg/kg/injection, schedule: Q03DX003 (ip), vehicle: saline): 125 % of control [5 of 6 alive]
- survivor count (T/C endpoint: mean survival time, dose: 32.0 mg/kg/injection, schedule: Q01DX009 (ip), vehicle: saline): 2 of 6
- survivor count (T/C endpoint: mean survival time, dose: 64.0 mg/kg/injection, schedule: Q01DX009 (ip), vehicle: saline): 0 of 6

Compound: O=C(NCCCl)Nc1cc(Cl)cc(Cl)c1
- survivor count [1]: 6 of 6
- survivor count [2]: 2 of 6

Compound: CCCCCCCCCCCCNC(=O)c1ccc[n+](Cc2ccccc2)c1
- survivor count [3]: 0 of 6
- survivor count [4]: 0 of 6
- survivor count [5]: 0 of 6

Compound: COc1cc([C@@H]2c3cc4c(c(O)c3C[C@H]3COC(=O)[C@@H]32)OCO4)cc(OC)c1O
- survivor count (T/C endpoint: mean survival time, dose: 4000.0 micrograms/kg/injection, schedule: Q01DX009 (ip), vehicle: saline): 6 of 6

Compound: CCOP(=S)(OCC)OP(=S)(OCC)OCC
- survivor count (T/C endpoint: mean survival time, dose: 8.0 mg/kg/injection, schedule: Q04DX003 (ip), vehicle: other): 5 of 6
- survivor count (T/C endpoint: mean survival time, dose: 16.0 mg/kg/injection, schedule: Q04DX003 (ip), vehicle: other): 0 of 6

Compound: COc1ccc(C(=O)/C=C/c2ccc(N(C)C)cc2)cc1
- survivor count [6]: 6 of 6

Compound: C1CCC(CCNCCC2CCCCC2)CC1
- survivor count [7]: 3 of 6
- survivor count [8]: 2 of 6
- survivor count [6]: 0 of 6

Compound: O=C(O)C1CCC(C(=O)O)CC1.[NH-]C1CCCCC1[NH-].[Pt+2] (stereo unspecified)
- T/C (T/C endpoint: median survival time, dose: 6.25 mg/kg/injection, schedule: Q04DX003 (ip), vehicle: saline): 125 % of control
- T/C (T/C endpoint: median survival time, dose: 12.5 mg/kg/injection, schedule: Q04DX003 (ip), vehicle: saline): 126 and 143 % of control
- T/C (T/C endpoint: median survival time, dose: 25.0 mg/kg/injection, schedule: Q04DX003 (ip), vehicle: saline): 140 % of control

Compound: NC(=S=O)C(N)=S=O
- survivor count (T/C endpoint: median survival time, dose: 800.0 mg/kg/injection, schedule: Q01DX005 (ip), vehicle: saline with Tween-80): 0 of 6

Compound: CN(C)NC(=O)/C=C\C(=O)O
- survivor count [9]: 3 of 6

Compound: O=C(O)C1CCCCC1C(=O)O.[NH-]C1CCC1.[NH2-].[Pt+2] (stereo unspecified)
- survivor count (T/C endpoint: median survival time, dose: 100.0 mg/kg/injection, schedule: Q04DX003 (ip), vehicle: distilled water + Tween-80): 2 of 6
- survivor count (T/C endpoint: median survival time, dose: 200.0 mg/kg/injection, schedule: Q04DX003 (ip), vehicle: distilled water + Tween-80): 0 of 6

Compound: CN(C)C(=S)Oc1ccc(S(=O)(=O)F)c(Cl)c1Cl
- survivor count (T/C endpoint: mean survival time, dose: 200.0 mg/kg/injection, schedule: Q04DX002 (ip), vehicle: saline with Tween-80): 3 of 3

Compound: NC(=O)c1nn(C2OC(CO)C(O)C2O)c2ncnc(N)c12 (stereo unspecified)
- survivor count [10]: 3 of 6
- survivor count (T/C endpoint: mean survival time, dose: 200.0 mg/kg/injection, schedule: Q01DX009 (ip), vehicle: Klucel (hydroxypropylcellulose) (HPC)): 0 of 6

Compound: O=C(N/N=C/c1ccc2c(c1)CCC2)c1cccc([N+](=O)[O-])c1
- survivor count [11]: 6 of 6

Compound: CN(C)CCSCC(=O)N1c2ccccc2Sc2ccc(Cl)cc21
- survivor count [1]: 0 of 6
- survivor count [5]: 0 of 6

Compound: CS/C([S-])=N/[NH-].CS/C([S-])=N/[NH-].[Ni]
- survivor count (T/C endpoint: mean survival time, dose: 6.25 mg/kg/injection, schedule: Q01DX009 (ip), vehicle: saline with Tween-80): 6 of 6
- survivor count [12]: 3 of 6
- survivor count (T/C endpoint: mean survival time, dose: 25.0 mg/kg/injection, schedule: Q01DX001 (ip), vehicle: saline with Tween-80): 2 of 6
- survivor count (T/C endpoint: mean survival time, dose: 50.0 mg/kg/injection, schedule: Q01DX001 (ip), vehicle: saline with Tween-80): 0 of 6
- survivor count [11]: 1 of 6
- survivor count (T/C endpoint: mean survival time, dose: 200.0 mg/kg/injection, schedule: Q01DX001 (ip), vehicle: saline with Tween-80): 0 of 6
- survivor count [13]: 0 of 6

Compound: c1ccc(-c2c3ccccc3c(-c3ccccc3)c3c2ccc2ccccc23)cc1
- survivor count (T/C endpoint: mean survival time, dose: 25.0 mg/kg/injection, schedule: Q01DX009 (ip), vehicle: Klucel (hydroxypropylcellulose) (HPC)): 3 of 3
- survivor count (T/C endpoint: mean survival time, dose: 50.0 mg/kg/injection, schedule: Q01DX009 (ip), vehicle: Klucel (hydroxypropylcellulose) (HPC)): 3 of 3
- survivor count [10]: 3 of 3

Compound: O=C1CC2=C(CC(O)=CC=C2)C(=O)O1
- survivor count [9]: 0 of 6

Compound: CN1C2CCC1CC(OC(=O)c1ccc(O)cc1)C2 (stereo unspecified)
- survivor count [7]: 2 of 6
- survivor count [8]: 0 of 6
- survivor count [6]: 0 of 6

Compound: CCOC(=O)CC(=O)C(F)(F)F.CCOC(=O)CC(=O)C(F)(F)F.[Ni]
- survivor count [7]: 3 of 6
- survivor count [6]: 0 of 6

Compound: CCOCCNCc1ccc(Cl)cc1Cl
- survivor count [5]: 0 of 6

Compound: O=C1OC(=O)C2=C1C1C3C=CCC3C2N2C=CC=CC12 (stereo unspecified)
- survivor count (T/C endpoint: mean survival time, dose: 400.0 mg/kg/injection, schedule: Q01DX001 (ip), vehicle: Klucel (hydroxypropylcellulose) (HPC)): 3 of 6

Compound: CCSCCNC1=C(C)C(=O)C2=C(C1=O)[C@H](COC(N)=O)[C@]1(OC)[C@H]3[C@@H](CN21)N3C (stereo partly specified)
- T/C (T/C endpoint: mean survival time, dose: 24.0 mg/kg/injection, schedule: Q01DX001 (ip), vehicle: distilled water + Tween-80): 143 % of control
- T/C (T/C endpoint: mean survival time, dose: 48.0 mg/kg/injection, schedule: Q01DX001 (ip), vehicle: distilled water + Tween-80): 145 % of control [5 of 6 alive]

Compound: CO[C](=O)[Hg][c]1ccc(N=Cc2ccc(N(C)C)cc2Cl)cc1
- survivor count [12]: 3 of 6
- survivor count [14]: 1 of 6
- survivor count (T/C endpoint: mean survival time, dose: 50.0 mg/kg/injection, schedule: Q01DX009 (ip), vehicle: saline with Tween-80): 0 of 6
- survivor count (T/C endpoint: mean survival time, dose: 100.0 mg/kg/injection, schedule: Q01DX009 (ip), vehicle: saline with Tween-80): 0 of 6
- survivor count [1]: 0 of 6
- survivor count [2]: 0 of 6

Compound: CCC(CC)(C[NH-])C[NH-].[Cl][Pt+2][Cl]
- survivor count [3]: 6 of 6
- survivor count [4]: 1 of 6

Compound: [Cl][Pt+2][Cl].[NH-]CC1(C[NH-])CCCC1
- survivor count (T/C endpoint: mean survival time, dose: 50.0 mg/kg/injection, schedule: Q04DX003 (ip), vehicle: saline with Tween-80): 4 of 6
- survivor count [3]: 3 of 6
- survivor count [4]: 0 of 6

Compound: CCC[CH2][Sn]1([CH2]CCC)[O]CC2OC(n3cc(C)c(=O)[nH]c3=O)CC2[O]1 (stereo unspecified)
- survivor count (T/C endpoint: mean survival time, dose: 6.25 mg/kg/injection, schedule: Q01DX005 (ip), vehicle: other): 3 of 6
- survivor count (T/C endpoint: mean survival time, dose: 12.5 mg/kg/injection, schedule: Q01DX005 (ip), vehicle: other): 0 of 6
- survivor count (T/C endpoint: mean survival time, dose: 25.0 mg/kg/injection, schedule: Q01DX005 (ip), vehicle: other): 0 of 6
- survivor count (T/C endpoint: mean survival time, dose: 50.0 mg/kg/injection, schedule: Q01DX005 (ip), vehicle: other): 0 of 6
- survivor count (T/C endpoint: mean survival time, dose: 100.0 mg/kg/injection, schedule: Q01DX005 (ip), vehicle: other): 0 of 6
- survivor count (T/C endpoint: mean survival time, dose: 200.0 mg/kg/injection, schedule: Q01DX005 (ip), vehicle: other): 0 of 6

Compound: C/C=C(/Cl)C(=O)O
- survivor count [13]: 1 of 6

Compound: CCCCCCCCCCCCCCCOc1ccc(OCCCCCCCCCCCCCC)cc1
- survivor count [11]: 6 of 6

Compound: O/N=C/C=N/O.O/N=C/C=N/O.[Pd]
- survivor count [12]: 0 of 6
- survivor count [14]: 0 of 6
- survivor count (T/C endpoint: mean survival time, dose: 25.0 mg/kg/injection, schedule: Q04DX002 (ip), vehicle: saline with Tween-80): 0 of 3
- survivor count (T/C endpoint: mean survival time, dose: 50.0 mg/kg/injection, schedule: Q04DX002 (ip), vehicle: saline with Tween-80): 0 of 3
- survivor count (T/C endpoint: mean survival time, dose: 100.0 mg/kg/injection, schedule: Q04DX002 (ip), vehicle: saline with Tween-80): 0 of 3

Compound: c1ccc(SCN2CCN(CSc3ccccc3)CC2)cc1
- survivor count (T/C endpoint: mean survival time, dose: 200.0 mg/kg/injection, schedule: Q01DX009 (ip), vehicle: saline): 6 of 6
- survivor count [9]: 2 of 6

Compound: c1ccc(C2OCC3(CO2)COC(c2ccccc2)OC3)cc1 (stereo unspecified)
- survivor count [2]: 6 of 6
